Data published in paper PMC3095566.
These are yes or no findings as the source states them, for the method shown. In cells and extracts the contact can be indirect. These calls come from enrichment with a bait or labelling near it, and not all partners need be listed. Where a sequence is shown, tags or fusion partners need not be part of it.

The chains behind the UniProt entries cited, without tags or fusion partners. Residues count along the entry.
UniProt P62258: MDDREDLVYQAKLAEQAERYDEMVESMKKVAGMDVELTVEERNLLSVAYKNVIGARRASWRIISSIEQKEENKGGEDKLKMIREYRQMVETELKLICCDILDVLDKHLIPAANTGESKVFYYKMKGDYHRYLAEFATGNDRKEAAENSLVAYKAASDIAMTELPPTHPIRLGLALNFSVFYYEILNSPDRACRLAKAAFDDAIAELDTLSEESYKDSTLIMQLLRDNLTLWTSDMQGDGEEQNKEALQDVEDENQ
UniProt P11142: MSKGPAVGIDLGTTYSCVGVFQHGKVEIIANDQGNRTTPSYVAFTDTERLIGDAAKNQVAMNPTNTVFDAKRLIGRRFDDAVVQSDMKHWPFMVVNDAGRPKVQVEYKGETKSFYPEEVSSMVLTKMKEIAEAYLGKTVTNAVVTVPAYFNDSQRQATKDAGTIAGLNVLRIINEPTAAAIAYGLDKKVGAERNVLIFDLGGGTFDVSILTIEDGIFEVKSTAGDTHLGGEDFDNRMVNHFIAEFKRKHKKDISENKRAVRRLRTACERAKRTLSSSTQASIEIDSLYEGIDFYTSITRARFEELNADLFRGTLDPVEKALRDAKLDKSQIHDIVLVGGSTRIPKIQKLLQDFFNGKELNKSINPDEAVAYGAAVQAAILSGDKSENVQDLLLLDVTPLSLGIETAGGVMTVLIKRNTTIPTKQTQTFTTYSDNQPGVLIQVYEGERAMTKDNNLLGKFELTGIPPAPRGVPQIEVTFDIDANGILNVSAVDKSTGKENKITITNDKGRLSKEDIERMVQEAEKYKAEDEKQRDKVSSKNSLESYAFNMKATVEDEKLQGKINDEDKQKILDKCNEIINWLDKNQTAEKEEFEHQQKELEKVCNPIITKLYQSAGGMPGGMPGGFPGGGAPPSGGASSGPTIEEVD
UniProt P10809, residues 27-573: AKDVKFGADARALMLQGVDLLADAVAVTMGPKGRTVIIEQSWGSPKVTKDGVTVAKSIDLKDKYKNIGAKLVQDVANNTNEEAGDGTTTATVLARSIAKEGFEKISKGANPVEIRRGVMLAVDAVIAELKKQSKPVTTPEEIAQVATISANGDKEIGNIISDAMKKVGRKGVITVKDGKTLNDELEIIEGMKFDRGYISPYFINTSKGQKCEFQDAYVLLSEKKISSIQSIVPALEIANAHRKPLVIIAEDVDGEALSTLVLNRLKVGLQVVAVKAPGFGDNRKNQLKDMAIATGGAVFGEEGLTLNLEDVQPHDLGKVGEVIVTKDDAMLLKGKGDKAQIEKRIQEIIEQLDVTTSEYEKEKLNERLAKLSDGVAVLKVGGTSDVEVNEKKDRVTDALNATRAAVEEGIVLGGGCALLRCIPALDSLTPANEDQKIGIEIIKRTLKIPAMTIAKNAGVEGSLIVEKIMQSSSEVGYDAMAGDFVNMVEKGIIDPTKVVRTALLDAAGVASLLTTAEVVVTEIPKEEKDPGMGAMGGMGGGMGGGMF

T1: TAP-tagged Keratin 23 (UniProt Q9C075)
T1 sequence: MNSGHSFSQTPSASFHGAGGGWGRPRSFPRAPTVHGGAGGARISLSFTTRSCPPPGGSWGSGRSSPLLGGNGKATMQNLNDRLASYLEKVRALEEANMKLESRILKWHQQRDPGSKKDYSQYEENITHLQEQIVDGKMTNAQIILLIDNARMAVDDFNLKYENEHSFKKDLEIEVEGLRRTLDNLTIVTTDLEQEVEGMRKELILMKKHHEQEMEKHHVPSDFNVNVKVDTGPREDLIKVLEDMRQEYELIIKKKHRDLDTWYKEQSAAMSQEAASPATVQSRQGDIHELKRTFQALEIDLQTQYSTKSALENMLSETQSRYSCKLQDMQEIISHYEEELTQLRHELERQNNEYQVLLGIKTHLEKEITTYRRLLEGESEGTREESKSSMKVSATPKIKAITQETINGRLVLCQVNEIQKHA

B1: cytokeratin 18 (protein, UniProt P05783 1-430)
chain: MSFTTRSTFSTNYRSLGSVQAPSYGARPVSSAASVYAGAGGSGSRISVSRSTSFRGGMGSGGLATGIAGGLAGMGGIQNEKETMQSLNDRLASYLDRVRSLETENRRLESKIREHLEKKGPQVRDWSHYFKIIEDLRAQIFANTVDNARIVLQIDNARLAADDFRVKYETELAMRQSVENDIHGLRKVIDDTNITRLQLETEIEALKEELLFMKKNHEEEVKGLQAQIASSGLTVEVDAPKSQDLAKIMADIRAQYDELARKNREELDKYWSQQIEESTTVVTTQSAEVGAAETTLTELRRTVQSLEIDLDSMRNLKASLENSLREVEARYALQMEQLNGILLHLESELAQTRAEGQRQAQEYEALLNIKVKLEAEIATYRRLLEDGEDFNLGDALDSSNSMQTIQKTTTRRIVDGKVVSETNDTKVLRH
B2: 14-3-3γ (endogenous) (protein, UniProt P61981 1-247)
chain: MVDREQLVQKARLAEQAERYDDMAAAMKNVTELNEPLSNEERNLLSVAYKNVVGARRSSWRVISSIEQKTSADGNEKKIEMVRAYREKIEKELEAVCQDVLSLLDNYLIKNCSETQYESKVFYLKMKGDYYRYLAEVATGEKRATVVESSEKAYSEAHEISKEHMQPTHPIRLGLALNYSVFYYEIQNAPEQACHLAKTAFDDAIAELDTLNEDSYKDSTLIMQLLRDNLTLWTSDQQDDDGGEGNN

Target: T1, TAP-tagged Keratin 23
Assay: affinity purification with mass spectrometry; tandem affinity purification of TAP-KRT23 from lysates of stably transduced Smad4 re-expressing and Smad4 negative SW480 cells (50 mM Tris pH 7.4, 150 mM NaCl, 5 mM EDTA, 1 mM DTT, 2% Triton X-100): IgG-Sepharose, TEV cleavage, ANTI-FLAG M2-Agarose; eluate on SDS-PAGE, silver stain, bands identified by nanoLC-MS/MS

Molecule	binding
14-3-3ε (endogenous) (from UniProt P62258 1-255)	binds
HSP70 (from UniProt P11142 1-646)	binds
HSP60 (from UniProt P10809 27-573)	binds
B1	binds
B2	binds
